{
  "sequences": {"note": "Amino acid sequences for entries named in this document (tags omitted). A change or cut given only in a name is not applied to a line headed by its entry. Residues count along the entry.", "UniProt Q04900": "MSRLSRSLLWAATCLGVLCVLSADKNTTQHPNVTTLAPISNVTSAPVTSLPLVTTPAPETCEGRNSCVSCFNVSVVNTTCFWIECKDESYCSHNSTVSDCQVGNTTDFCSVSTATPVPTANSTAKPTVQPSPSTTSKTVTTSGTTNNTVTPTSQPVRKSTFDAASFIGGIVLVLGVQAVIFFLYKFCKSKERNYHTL", "HA4-CD164 R192*": "residues 24-191 of Q04900"},
  "source": "paper PMC4510537",
  "target": "HA4-CD164 R192* (human) (UniProt Q04900)",
  "assay": "co-IP; HEK-293 cells co-transfected with distinctly tagged CD164 and CD164 R192*, lysed 2 days later in immunoprecipitation buffer; precipitated with anti-HA (12CA5) and protein G agarose; reducing SDS-PAGE, immunoblot with anti-FLAG (M2) or anti-HA",
  "note": "Results are given in words; binding and its absence hold for the method and conditions named. Binding seen in cells or lysates may run through a third protein. Some results given as binding are weak or reduced against the parent protein; the word gives no strength.",
  "data": [
    {"substance": "FLAG4-CD164 (from UniProt Q04900 24-197)", "values": [
      {"measurement": "binding", "result": "binds"}
    ]}
  ]
}
